These are yes or no findings as the source states them, for the method shown. Binding seen in cells or lysates may run through a third protein. Some results given as binding are weak or reduced against the parent protein; the word gives no strength. Tags and fused reporters may be left off the sequences shown.

One experiment deals with T1, FLAG-p43 (human), Q12904.
T1 chain: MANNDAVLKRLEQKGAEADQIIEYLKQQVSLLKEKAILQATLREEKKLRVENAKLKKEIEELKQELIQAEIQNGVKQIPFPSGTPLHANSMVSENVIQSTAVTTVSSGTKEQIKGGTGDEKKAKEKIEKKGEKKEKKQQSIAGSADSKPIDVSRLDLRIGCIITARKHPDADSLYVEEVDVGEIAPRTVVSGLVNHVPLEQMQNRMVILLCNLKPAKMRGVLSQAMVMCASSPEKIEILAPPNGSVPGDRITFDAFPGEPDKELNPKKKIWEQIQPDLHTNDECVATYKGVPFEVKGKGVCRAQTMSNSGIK
The experiment can be described thus: co-IP; MSC purification: 293T transfected with FLAG-ArgRS or FLAG-p43, lysate on anti-FLAG M2 affinity gel 2 h at 4 °C, washed with PBS four times, eluted with 3xFLAG peptides; Coomassie staining and Western blots. The following applies: remark: other sources report otherwise. (In general: Immunoblotting shows a protein as a band on a membrane.)

The target of experiment [1] is T2, FLAG-ArgRS (human), P54136.
T2 chain: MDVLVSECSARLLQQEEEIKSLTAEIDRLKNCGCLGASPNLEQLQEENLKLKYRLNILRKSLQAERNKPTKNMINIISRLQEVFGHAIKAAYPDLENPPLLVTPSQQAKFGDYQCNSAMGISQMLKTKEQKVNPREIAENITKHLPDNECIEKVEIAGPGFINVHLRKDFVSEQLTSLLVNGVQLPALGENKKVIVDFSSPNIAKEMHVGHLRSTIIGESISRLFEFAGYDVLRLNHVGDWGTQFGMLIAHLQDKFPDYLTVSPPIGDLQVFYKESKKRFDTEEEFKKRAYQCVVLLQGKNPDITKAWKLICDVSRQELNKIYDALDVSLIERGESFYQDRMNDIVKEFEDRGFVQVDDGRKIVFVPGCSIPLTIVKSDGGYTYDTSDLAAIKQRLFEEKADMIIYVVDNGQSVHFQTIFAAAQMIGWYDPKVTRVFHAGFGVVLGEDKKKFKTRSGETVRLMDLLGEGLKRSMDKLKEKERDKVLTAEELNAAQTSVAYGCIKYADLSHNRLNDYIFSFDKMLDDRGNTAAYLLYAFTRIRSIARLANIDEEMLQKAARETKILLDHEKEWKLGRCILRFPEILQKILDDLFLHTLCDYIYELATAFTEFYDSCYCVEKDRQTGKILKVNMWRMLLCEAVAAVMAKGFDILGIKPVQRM
Described as above. The following applies: remark: other sources report otherwise.

Experiment [2] addresses T2, FLAG-ArgRS (human), P54136. As to the kind of experiment: co-IP; 293T extracts overexpressing FLAG-tagged full-length or truncated ArgRS, p43 or GlnRS; IP with FLAG antibody, Western blot with antibodies against MSC components. The note with it: remark: other sources report otherwise.
In a further experiment the target is T3, FLAG-p43 (human) (UniProt Q12904).
T3 sequence: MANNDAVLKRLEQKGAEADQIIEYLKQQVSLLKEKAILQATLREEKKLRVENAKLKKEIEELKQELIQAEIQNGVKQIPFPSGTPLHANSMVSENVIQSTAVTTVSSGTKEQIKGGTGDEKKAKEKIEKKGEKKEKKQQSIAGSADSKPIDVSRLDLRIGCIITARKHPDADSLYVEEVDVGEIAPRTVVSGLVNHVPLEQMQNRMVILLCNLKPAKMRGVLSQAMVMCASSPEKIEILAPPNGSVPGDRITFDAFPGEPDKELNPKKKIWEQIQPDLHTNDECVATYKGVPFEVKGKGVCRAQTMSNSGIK
As to the kind of experiment: co-IP; MSC purification: 293T transfected with FLAG-ArgRS or FLAG-p43, lysate on anti-FLAG M2 affinity gel 2 h at 4 °C, washed with PBS four times, eluted with 3xFLAG peptides; Coomassie staining and Western blots.

B1: arginyl-tRNA synthetase (ArgRS), endogenous, P54136 1-660 (enzyme)
chain: MDVLVSECSARLLQQEEEIKSLTAEIDRLKNCGCLGASPNLEQLQEENLKLKYRLNILRKSLQAERNKPTKNMINIISRLQEVFGHAIKAAYPDLENPPLLVTPSQQAKFGDYQCNSAMGISQMLKTKEQKVNPREIAENITKHLPDNECIEKVEIAGPGFINVHLRKDFVSEQLTSLLVNGVQLPALGENKKVIVDFSSPNIAKEMHVGHLRSTIIGESISRLFEFAGYDVLRLNHVGDWGTQFGMLIAHLQDKFPDYLTVSPPIGDLQVFYKESKKRFDTEEEFKKRAYQCVVLLQGKNPDITKAWKLICDVSRQELNKIYDALDVSLIERGESFYQDRMNDIVKEFEDRGFVQVDDGRKIVFVPGCSIPLTIVKSDGGYTYDTSDLAAIKQRLFEEKADMIIYVVDNGQSVHFQTIFAAAQMIGWYDPKVTRVFHAGFGVVLGEDKKKFKTRSGETVRLMDLLGEGLKRSMDKLKEKERDKVLTAEELNAAQTSVAYGCIKYADLSHNRLNDYIFSFDKMLDDRGNTAAYLLYAFTRIRSIARLANIDEEMLQKAARETKILLDHEKEWKLGRCILRFPEILQKILDDLFLHTLCDYIYELATAFTEFYDSCYCVEKDRQTGKILKVNMWRMLLCEAVAAVMAKGFDILGIKPVQRM
Turning to B1, the binding result in the experiment with FLAG-p43 (human), Q12904 is given as “binds”.

B2: glutaminyl-tRNA synthetase (GlnRS), endogenous, P47897 1-775 (enzyme)
chain: MAALDSLSLFTSLGLSEQKARETLKNSALSAQLREAATQAQQTLGSTIDKATGILLYGLASRLRDTRRLSFLVSYIASKKIHTEPQLSAALEYVRSHPLDPIDTVDFERECGVGVIVTPEQIEEAVEAAINRHRPQLLVERYHFNMGLLMGEARAVLKWADGKMIKNEVDMQVLHLLGPKLEADLEKKFKVAKARLEETDRRTAKDVVENGETADQTLSLMEQLRGEALKFHKPGENYKTPGYVVTPHTMNLLKQHLEITGGQVRTRFPPEPNGILHIGHAKAINFNFGYAKANNGICFLRFDDTNPEKEEAKFFTAICDMVAWLGYTPYKVTYASDYFDQLYAWAVELIRRGLAYVCHQRGEELKGHNTLPSPWRDRPMEESLLLFEAMRKGKFSEGEATLRMKLVMEDGKMDPVAYRVKYTPHHRTGDKWCIYPTYDYTHCLCDSIEHITHSLCTKEFQARRSSYFWLCNALDVYCPVQWEYGRLNLHYAVVSKRKILQLVATGAVRDWDDPRLFTLTALRRRGFPPEAINNFCARVGVTVAQTTMEPHLLEACVRDVLNDTAPRAMAVLESLRVIITNFPAAKSLDIQVPNFPADETKGFHQVPFAPIVFIERTDFKEEPEPGFKRLAWGQPVGLRHTGYVIELQHVVKGPSGCVESLEVTCRRADAGEKPKAFIHWVSQPLMCEVRLYERLFQHKNPEDPTEVPGGFLSDLNLASLHVVDAALVDCSVALAKPFDKFQFERLGYFSVDPDSHQGKLVFNRTVTLKEDPGKV
Regarding B2, the binding result in experiment [1] and in experiment [2] was “binds” each time.

B3: p18, endogenous, O43324 1-174 (protein)
chain: MAAAAELSLLEKSLGLSKGNKYSAQGERQIPVLQTNNGPSLTGLTTIAAHLVKQANKEYLLGSTAEEKAIVQQWLEYRVTQVDGHSSKNDIHTLLKDLNSYLEDKVYLTGYNFTLADILLYYGLHRFIVDLTVQEKEKYLNVSRWFCHIQHYPGIRQHLSSVVFIKNRLYTNSH
As to B3, the binding result in experiment [1] is “binds”.

B4: p18, endogenous (protein, UniProt O43324 1-174)
chain: MAAAAELSLLEKSLGLSKGNKYSAQGERQIPVLQTNNGPSLTGLTTIAAHLVKQANKEYLLGSTAEEKAIVQQWLEYRVTQVDGHSSKNDIHTLLKDLNSYLEDKVYLTGYNFTLADILLYYGLHRFIVDLTVQEKEKYLNVSRWFCHIQHYPGIRQHLSSVVFIKNRLYTNSH
For B4, in the experiment with FLAG-p43 (human), the binding entry is listed as “binds”.

B5: methionyl-tRNA synthetase (MetRS), endogenous, P56192 1-900 (enzyme)
chain: MRLFVSDGVPGCLPVLAAAGRARGRAEVLISTVGPEDCVVPFLTRPKVPVLQLDSGNYLFSTSAICRYFFLLSGWEQDDLTNQWLEWEATELQPALSAALYYLVVQGKKGEDVLGSVRRALTHIDHSLSRQNCPFLAGETESLADIVLWGALYPLLQDPAYLPEELSALHSWFQTLSTQEPCQRAAETVLKQQGVLALRPYLQKQPQPSPAEGRAVTNEPEEEELATLSEEEIAMAVTAWEKGLESLPPLRPQQNPVLPVAGERNVLITSALPYVNNVPHLGNIIGCVLSADVFARYSRLRQWNTLYLCGTDEYGTATETKALEEGLTPQEICDKYHIIHADIYRWFNISFDIFGRTTTPQQTKITQDIFQQLLKRGFVLQDTVEQLRCEHCARFLADRFVEGVCPFCGYEEARGDQCDKCGKLINAVELKKPQCKVCRSCPVVQSSQHLFLDLPKLEKRLEEWLGRTLPGSDWTPNAQFITRSWLRDGLKPRCITRDLKWGTPVPLEGFEDKVFYVWFDATIGYLSITANYTDQWERWWKNPEQVDLYQFMAKDNVPFHSLVFPCSALGAEDNYTLVSHLIATEYLNYEDGKFSKSRGVGVFGDMAQDTGIPADIWRFYLLYIRPEGQDSAFSWTDLLLKNNSELLNNLGNFINRAGMFVSKFFGGYVPEMVLTPDDQRLLAHVTLELQHYHQLLEKVRIRDALRSILTISRHGNQYIQVNEPWKRIKGSEADRQRAGTVTGLAVNIAALLSVMLQPYMPTVSATIQAQLQLPPPACSILLTNFLCTLPAGHQIGTVSPLFQKLENDQIESLRQRFGGGQAKTSPKPAVVETVTTAKPQQIQALMDEVTKQGNIVRELKAQKADKNEVAAEVAKLLDLKKQLAVAEGKPPEAPKGKKKK
B5: in experiment [1], the binding entry is on record as “binds”.

B6: methionyl-tRNA synthetase (MetRS), endogenous (enzyme, UniProt P56192 1-900)
chain: MRLFVSDGVPGCLPVLAAAGRARGRAEVLISTVGPEDCVVPFLTRPKVPVLQLDSGNYLFSTSAICRYFFLLSGWEQDDLTNQWLEWEATELQPALSAALYYLVVQGKKGEDVLGSVRRALTHIDHSLSRQNCPFLAGETESLADIVLWGALYPLLQDPAYLPEELSALHSWFQTLSTQEPCQRAAETVLKQQGVLALRPYLQKQPQPSPAEGRAVTNEPEEEELATLSEEEIAMAVTAWEKGLESLPPLRPQQNPVLPVAGERNVLITSALPYVNNVPHLGNIIGCVLSADVFARYSRLRQWNTLYLCGTDEYGTATETKALEEGLTPQEICDKYHIIHADIYRWFNISFDIFGRTTTPQQTKITQDIFQQLLKRGFVLQDTVEQLRCEHCARFLADRFVEGVCPFCGYEEARGDQCDKCGKLINAVELKKPQCKVCRSCPVVQSSQHLFLDLPKLEKRLEEWLGRTLPGSDWTPNAQFITRSWLRDGLKPRCITRDLKWGTPVPLEGFEDKVFYVWFDATIGYLSITANYTDQWERWWKNPEQVDLYQFMAKDNVPFHSLVFPCSALGAEDNYTLVSHLIATEYLNYEDGKFSKSRGVGVFGDMAQDTGIPADIWRFYLLYIRPEGQDSAFSWTDLLLKNNSELLNNLGNFINRAGMFVSKFFGGYVPEMVLTPDDQRLLAHVTLELQHYHQLLEKVRIRDALRSILTISRHGNQYIQVNEPWKRIKGSEADRQRAGTVTGLAVNIAALLSVMLQPYMPTVSATIQAQLQLPPPACSILLTNFLCTLPAGHQIGTVSPLFQKLENDQIESLRQRFGGGQAKTSPKPAVVETVTTAKPQQIQALMDEVTKQGNIVRELKAQKADKNEVAAEVAKLLDLKKQLAVAEGKPPEAPKGKKKK
With B6, the binding entry with FLAG-p43 (human) was “binds”.

B7: p38, endogenous, Q13155 1-320 (protein)
chain: MPMYQVKPYHGGGAPLRVELPTCMYRLPNVHGRSYGPAPGAGHVQEESNLSLQALESRQDDILKRLYELKAAVDGLSKMIQTPDADLDVTNIIQADEPTTLTTNALDLNSVLGKDYGALKDIVINANPASPPLSLLVLHRLLCEHFRVLSTVHTHSSVKSVPENLLKCFGEQNKKQPRQDYQLGFTLIWKNVPKTQMKFSIQTMCPIEGEGNIARFLFSLFGQKHNAVNATLIDSWVDIAIFQLKEGSSKEKAAVFRSMNSALGKSPWLAGNELTVADVVLWSVLQQIGGCSVTVPANVQRWMRSCENLAPFNTALKLLK
In the case of B7, the binding entry in experiment [1] and in experiment [2] was “binds” in each case.

B8: aspartyl-tRNA synthetase (AspRS), endogenous, P14868 1-501 (enzyme)
chain: MPSASASRKSQEKPREIMDAAEDYAKERYGISSMIQSQEKPDRVLVRVRDLTIQKADEVVWVRARVHTSRAKGKQCFLVLRQQQFNVQALVAVGDHASKQMVKFAANINKESIVDVEGVVRKVNQKIGSCTQQDVELHVQKIYVISLAEPRLPLQLDDAVRPEAEGEEEGRATVNQDTRLDNRVIDLRTSTSQAVFRLQSGICHLFRETLINKGFVEIQTPKIISAASEGGANVFTVSYFKNNAYLAQSPQLYKQMCICADFEKVFSIGPVFRAEDSNTHRHLTEFVGLDIEMAFNYHYHEVMEEIADTMVQIFKGLQERFQTEIQTVNKQFPCEPFKFLEPTLRLEYCEALAMLREAGVEMGDEDDLSTPNEKLLGHLVKEKYDTDFYILDKYPLAVRPFYTMPDPRNPKQSNSYDMFMRGEEILSGAQRIHDPQLLTERALHHGIDLEKIKAYIDSFRFGAPPHAGGGIGLERVTMLFLGLHNVRQTSMFPRDPKRLTP
As to B8, the binding entry was “binds” with FLAG-p43 (human), Q12904 and “binds” in experiment [1].
